Measurements from patent publication US20090035320A1 (MIE UNIVERSITY, published 2009).
No constants are given. Whether binding was seen depends on the method and setting. For some assays here: In cells and extracts the contact can be indirect. Some results given as binding are weak or reduced against the parent protein; the word gives no strength.

Tests used:
[1] = biological target: T1, HGFa (in mouse plasma) (mouse) (UniProt Q9R098); assay: co-immunoprecipitation from mouse plasma with anti-human PCI IgG-Sepharose (IP: ANTI-PCI ANTIBODY), immunoblot with anti-HGFa antibody (WB: ANTI-HGFa ANTIBODY)
T1 sequence (looked up): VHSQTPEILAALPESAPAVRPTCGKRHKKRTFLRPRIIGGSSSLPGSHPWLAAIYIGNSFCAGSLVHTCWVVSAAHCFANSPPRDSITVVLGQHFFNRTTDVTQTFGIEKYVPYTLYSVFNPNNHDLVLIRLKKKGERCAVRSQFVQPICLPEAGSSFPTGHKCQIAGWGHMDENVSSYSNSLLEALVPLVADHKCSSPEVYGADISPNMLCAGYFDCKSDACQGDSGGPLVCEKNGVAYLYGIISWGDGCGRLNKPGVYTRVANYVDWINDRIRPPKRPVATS

[2] = biological target: T1, HGFa (in mouse plasma) (mouse); assay: immunoprecipitation from plasma with anti-human PCI antibody, Western blot with anti-HGFa antibody

B1: human PCI (protein, UniProt P05154 26-406, looked up)
chain: EMKKRVEDLHVGATVAPSSRRDFTFDLYRALASAAPSQSIFFSPVSISMSLAMLSLGAGSSTKMQILEGLGLNLQKSSEKELHRGFQQLLQELNQPRDGFQLSLGNALFTDLVVDLQDTFVSAMKTLYLADTFPTNFRDSAGAMKQINDYVAKQTKGKIVDLLKNLDSNAVVIMVNYIFFKAKWETSFNHKGTQEQDFYVTSETVVRVPMMSREDQYHYLLDRNLSCRVVGVPYQGNATALFILPSEGKMQQVENGLSEKTLRKWLKMFKKRQLELYLPKFSIEGSYQLEKVLPSLGISNVFTSHADLSGISNHSNIQVSEMVHKAVVEVDESGTRAAAATGTIFTFRSARLNSQRLVFNRPFLMFIVDNNILFLGKVNRP
[1]
  binding: binds
[2]
  binding: binds
